Measured data: PubChem BioAssay AID743454 (Peter MacCallum Cancer Centre, 2014)
Assay: 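Knock-downs lowering viability or raising caspase 3/7 activity in vorinostat-treated resistant cells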 (primary screen). Cell system: human HCT116-VR colon cancer cells, selected for vorinostat resistance. Reagent: siRNA pool against human genes, 40 nM siRNA pool. Timing: vorinostat for 24 h, read-out about 72 h after transfection. Treatment: vorinostat at 2.5 µM final. Detection: 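Cell viability by CellTiter-Fluor and caspase 3/7 activity by luminescence, each scaled to mock wells per plate, duplicates averaged, then robust z-scored over all plates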. Direction: viability robust z-score: higher = more viable cells than screen typical; caspase robust z-score: higher = more caspase 3/7 activity than screen typical. Active means: 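Hits are knock-downs in viability class RV1/RV2 or caspase class CA1/CA2, excluding ones that killed cells in the no-drug cell-count arm; hits then retested with single siRNAs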.
This is a random part of about 18,000 reagents. 450 of them (2.5%) were called active. 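Single biological run; no consistent viability z cut-off exists, so the class columns, not z-scores, define the calls.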 Entries without a mark were called inactive. Reagents against one gene are numbered here.

| gene symbol | reagent | viability hit class | caspase hit class | viability robust z-score | caspase robust z-score |
| --- | --- | --- | --- | --- | --- |
| RNH1 | 1 | no change | no change | 1.42 | 0.4 |
| FAM209B | 1 | no change | no change | 0.96 | -0.72 |
| FGR | 1 | no change | no change | -0.29 | 2.53 |
| RPL36AL | 1 | no change | no change | -2.37 | 0.42 |
| BRF1 | 1 | no change | no change | -1.34 | 2.23 |
| RXYLT1 | 1 | no change | no change | -0.58 | -0.81 |
| PLCG2 | 1 | no change | no change | -0.85 | -1.34 |
| ZNF587 | 1 | no change | no change | 0.55 | 0.22 |
| TOM1 | 1 | no change | no change | -1.98 | -1.23 |
| PRELP | 1 | no change | no change | 0.4 | -0.53 |
| AKAP11 | 1 | no change | no change | -2.09 | 1.68 |
| LYSMD1 | 1 | no change | no change | -0.64 | -1.15 |
| DCAF10 | 1 | no change | no change | 0.62 | -0.31 |
| TTN | 1 | no change | no change | 0.54 | 0.41 |
| PDCD1 | 1 | no change | no change | -0.74 | 3.71 |
| TBC1D3F | 1 | no change | no change | 0.7 | 2.81 |
| TBC1D3F | 2 | no change | no change | 0.18 | -0.35 |
| ETF1 | 1 | no change | no change | -2.67 | -0.29 |
| TRIM40 | 1 | no change | no change | 0.09 | 2.48 |
| SART1 | 1 | no change | no change | -2.54 | -0.22 |
| PRSS33 | 1 | no change | no change | 0.85 | 1.38 |
| VAPA | 1 | no change | no change | 0.68 | -1.15 |
| PFKFB3 | 1 | no change | no change | -0.78 | -0.45 |

Next part (3 carried over from the part before).
| gene symbol | reagent | viability hit class | caspase hit class | viability robust z-score | caspase robust z-score |
| --- | --- | --- | --- | --- | --- |
| PRSS33 | 1 | no change | no change | 0.85 | 1.38 |
| VAPA | 1 | no change | no change | 0.68 | -1.15 |
| PFKFB3 | 1 | no change | no change | -0.78 | -0.45 |
| MRPL17 | 1 | no change | no change | -0.13 | 2.39 |
| CST8 | 1 | no change | no change | 1.16 | -0.81 |
| TGM2 | 1 | no change | no change | 0.49 | -0.73 |
| IL12RB2 | 1 | no change | no change | -0.1 | -0.24 |
| PRKAG3 | 1 | no change | no change | -2.96 | -0.16 |
| ZDHHC6 | 1 | no change | no change | -0.72 | 2.19 |
| DYNLT4 | 1 | no change | no change | 0.8 | 0.12 |
| CCK | 1 | no change | no change | -1.03 | -0.76 |
| ACADM | 1 | no change | no change | -0.34 | -0.78 |
| CAPN13 | 1 | no change | no change | -0.2 | -0.7 |
| PDE5A | 1 | no change | no change | -0.48 | -0.87 |
| ZNF638 | 1 | no change | no change | -0.78 | -0.47 |
| SKIC3 | 1 | no change | no change | -0.52 | 2.15 |
| ATP2B2 | 1 | no change | no change | -1.82 | 1.81 |
| KLHL25 | 1 | no change | no change | -1.19 | -1.12 |
| SIKE1 | 1 | no change | no change | -0.24 | 0.8 |
